Consider two sequences from article PMC11374535.

The exact form of at least one protein or probe is not confirmed. At least one verdict was read from the data and is not stated in words by the source. Where a protein sequence is shown, tags need not be part of it.

For this series, the target named is T1, SlMYB86 (Solanum lycopersicum (tomato)) (UniProt A0A3Q7F5S7).
T1 sequence (looked up): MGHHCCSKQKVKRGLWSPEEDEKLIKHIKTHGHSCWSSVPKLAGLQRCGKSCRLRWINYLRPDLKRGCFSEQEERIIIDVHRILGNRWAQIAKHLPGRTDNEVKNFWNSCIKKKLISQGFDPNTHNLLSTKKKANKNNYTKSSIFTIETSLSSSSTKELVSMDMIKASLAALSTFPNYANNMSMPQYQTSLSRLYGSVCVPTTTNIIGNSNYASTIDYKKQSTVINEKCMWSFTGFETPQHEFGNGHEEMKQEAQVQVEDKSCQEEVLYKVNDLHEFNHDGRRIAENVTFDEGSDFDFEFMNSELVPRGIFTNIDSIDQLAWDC
Nature of the series: EMSA. To be noted: LightShift Chemiluminescent EMSA Kit (Thermo Fisher) guidelines; pH and temperature not stated; recombinant protein; residues 1-324; protein details: His (pET28a); label: biotin (labelled probe, unlabelled as competitor). For orientation: A gel shift assay detects complexes by their altered migration in electrophoresis.

For the sequence “TTCTCAATGAAGAGTCAACTGATCCTTTGGTAATAC (double strand) [SlTrxh promoter C1 probe]”, the binding result was “binds”. On to “CAAATGATTGAGATTTAACTGGATTGTGATGCATTG (double strand) [SlTrxh promoter C2 probe]”, for which the binding result is “binds”.
